Laboratory results: publication PMC7819943, “Rice protein-binding microarrays: a tool to detect cis-acting elements near promoter regions in rice”
The other results are listed elsewhere or left out.

These sequences were tested against T1, OsSMF1 (Oryza sativa, UniProt Q6ZLB0 1-436) (assay: protein-binding microarray (RPBM); PBS, 2% BSA, 51.3 ng/ul salmon testes DNA, 50 uM zinc acetate, 200 nM TF, 25 C, 1 h; high values mean tight binding). Conditions: protein: recombinant; tags: N-terminal polyhistidine and DsRed monomer fusion (pET32a); chain copies: 2; label: CyDye5-dUTP incorporated in the synthesized complementary strand; 3' TTTTT single-stranded linker to array surface; dsDNA, one strand shown.
T1 sequence: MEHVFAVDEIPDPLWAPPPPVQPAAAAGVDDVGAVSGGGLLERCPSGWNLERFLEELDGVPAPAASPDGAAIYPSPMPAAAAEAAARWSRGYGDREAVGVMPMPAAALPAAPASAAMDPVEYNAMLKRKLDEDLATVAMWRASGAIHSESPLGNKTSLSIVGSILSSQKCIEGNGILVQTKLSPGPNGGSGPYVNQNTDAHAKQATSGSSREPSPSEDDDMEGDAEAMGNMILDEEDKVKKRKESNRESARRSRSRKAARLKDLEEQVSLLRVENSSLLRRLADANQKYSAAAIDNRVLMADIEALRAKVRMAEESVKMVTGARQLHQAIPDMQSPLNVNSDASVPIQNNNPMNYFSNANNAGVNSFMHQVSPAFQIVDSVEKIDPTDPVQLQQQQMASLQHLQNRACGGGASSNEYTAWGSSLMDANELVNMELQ
Method in brief: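 The binding signal is fluorescence intensity per array feature (arbitrary units). Readings came from an Axon 4000B scanner after a washed, 2% BSA-blocked, double-stranded custom Agilent array had been incubated for 1 h at 25 °C with 200 nM protein and 50 µM zinc acetate. The protein was a Ni–NTA-purified transcription factor fused N-terminally to polyhistidine and DsRed, expressed in E. coli BL21-CodonPlus.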

Sequence | binding signal
GCAGGCTATTGAACGCGGCAAGGTTAGGTACCACGCCATACGGAGTCACCTAGTGCAG | 27600 fluorescence intensity (a.u.)
TTTTCCTTGATGACGTAGCTAAGTCAAGCCTATTAACATGCGGAGTCACCTAGTGCAG | 4950 fluorescence intensity (a.u.)
GTCCCTCCGCCGGCATCAGCTCAACGCCGCCGTCCTCCTCCGGAGTCACCTAGTGCAG | 3370 fluorescence intensity (a.u.)
GGGGATGGAGATTGTCTTTTCTAGTTTTAGCACTATCCGCCGGAGTCACCTAGTGCAG | 3300 fluorescence intensity (a.u.)
GTTGGTGGTGGAGCGGGAGGAGGTGCCGGTGGAGGCGGTGCGGAGTCACCTAGTGCAG | 53000 fluorescence intensity (a.u.)
GATTAACACGACATTAATAGGTACAAATTAAAACACTTACCGGAGTCACCTAGTGCAG | 14500 fluorescence intensity (a.u.)
CGAGGCGGCTTGACATTGTGTTTGAACTTACGTGCCCAAGCGGAGTCACCTAGTGCAG | 4260 fluorescence intensity (a.u.)
CGCCCCACACGTCTGCGTGGTTTGACGTGACAAAATCGGTCGGAGTCACCTAGTGCAG | 3980 fluorescence intensity (a.u.)
TTATGGCCGAGCGCGCATGCGCATGCACCAACACGTGTGGCGGAGTCACCTAGTGCAG | 4570 fluorescence intensity (a.u.)
CCAAGAGGAGTAATTTGATTGGCTAAGGCAGAGAATAGAGCGGAGTCACCTAGTGCAG | 31600 fluorescence intensity (a.u.)
AGGATTAGCAATATATTTATGATGTCATCAGGGCTAGTGACGGAGTCACCTAGTGCAG | 5410 fluorescence intensity (a.u.)
CACGTGATTCGTATACTATAGTACTACTCACGTTGGAGACCGGAGTCACCTAGTGCAG | 3570 fluorescence intensity (a.u.)
TGATTATTTGTGAAATAAAATGAGATAAAATGTGATTTTACGGAGTCACCTAGTGCAG | 28600 fluorescence intensity (a.u.)
TCGAGAACTATAGACGTTTTACGTCATTCTTTTACATTAGCGGAGTCACCTAGTGCAG | 5230 fluorescence intensity (a.u.)
CCGCCCGTTCGTGCGAGGAGGAGGAAAAGCCACACGTGTTCGGAGTCACCTAGTGCAG | 6640 fluorescence intensity (a.u.)
GATTGATCATGGTTGTTCGTCCTCGACGACCTCTACACCACGGAGTCACCTAGTGCAG | 31400 fluorescence intensity (a.u.)
TCACATGATGCCACGTGCATATAGATCGATCGGGTTCAGACGGAGTCACCTAGTGCAG | 5930 fluorescence intensity (a.u.)
TTTTCAGATTTCCAGGGTGAGGATGGGATGTGCTCATGTGCGGAGTCACCTAGTGCAG | 3830 fluorescence intensity (a.u.)
GCGGGTGATGTAGGGGACCACCATGAATCATACACCAATGCGGAGTCACCTAGTGCAG | 3140 fluorescence intensity (a.u.)
CACAGATACCCATGATTGCACTTATTTTGTGACGGGTGTACGGAGTCACCTAGTGCAG | 3660 fluorescence intensity (a.u.)
CCTATCCTATGCATGAAATGAGTCAGAGGCCCACGATAGCCGGAGTCACCTAGTGCAG | 5360 fluorescence intensity (a.u.)

Taken from the entries so far for reference:
Sequence | binding signal
GCGGGTGATGTAGGGGACCACCATGAATCATACACCAATGCGGAGTCACCTAGTGCAG | 3140 fluorescence intensity (a.u.)
CACAGATACCCATGATTGCACTTATTTTGTGACGGGTGTACGGAGTCACCTAGTGCAG | 3660 fluorescence intensity (a.u.)

The listing continues.

Sequence | binding signal
ACAGGCGAGGGTGGAACCCCGCGTGGCGAGAGCGTTGCGGCGGAGTCACCTAGTGCAG | 4270 fluorescence intensity (a.u.)
ATGAACTAAACGCACCCTTGTAAGTCTGACACACTGTGGACGGAGTCACCTAGTGCAG | 3720 fluorescence intensity (a.u.)
GAGTTGAAGCCCGAAACCCTGATGTGAGTTGGACAGGTGTCGGAGTCACCTAGTGCAG | 3940 fluorescence intensity (a.u.)
GGACCCCAACCACTATGCCGTAATTTAGCGTGTTTTCCCGCGGAGTCACCTAGTGCAG | 4150 fluorescence intensity (a.u.)
ATATATACTTAAACCACTGACTCATACTAATTCGTAAACACGGAGTCACCTAGTGCAG | 4360 fluorescence intensity (a.u.)
AAACTGACTCATACAAATGCCATTCTGTACATCCAGTGTCCGGAGTCACCTAGTGCAG | 4500 fluorescence intensity (a.u.)
TACTCCACTATACAAACCGACACTCGTGGGGTACGTCACTCGGAGTCACCTAGTGCAG | 4850 fluorescence intensity (a.u.)
AATGATTGAAATCGGGGCGCAAATTATTGCGATTATTATTCGGAGTCACCTAGTGCAG | 35000 fluorescence intensity (a.u.)
CATTTTCGACTCGCCGACGCCGACGTGTTCACCAATCACCCGGAGTCACCTAGTGCAG | 4540 fluorescence intensity (a.u.)
GGATGGATGTGACACATCCTAATATAATGAATCTGAACAGCGGAGTCACCTAGTGCAG | 3770 fluorescence intensity (a.u.)
CTCGATCGCCACCGCACCACCGTCCACCGCGAGCGCGCCCCGGAGTCACCTAGTGCAG | 4190 fluorescence intensity (a.u.)
TGTCGAGTCGAGCACGATGGGCCGTGCCGTGGAGTGCCAGCGGAGTCACCTAGTGCAG | 3620 fluorescence intensity (a.u.)
ATTGTGTGGTTTCTCCCTCTCTGGTTCTACCGCTTCTCCTCGGAGTCACCTAGTGCAG | 27300 fluorescence intensity (a.u.)
GAGCCGTCCATATAAATCCACGCCGTCGCCGCCGAATCTCCGGAGTCACCTAGTGCAG | 3370 fluorescence intensity (a.u.)
GGGGAGAGGGAGGAGGAGGAGGAGAGTGGCTACTAGTACTCGGAGTCACCTAGTGCAG | 3380 fluorescence intensity (a.u.)
GCCGGCGCCTCGTCCGTCATTCCGCCTGTGTCAAGCCGAACGGAGTCACCTAGTGCAG | 3390 fluorescence intensity (a.u.)
ACAACGTCACGACGACACATGACACGGCCTCCTCAGCTCCCGGAGTCACCTAGTGCAG | 5570 fluorescence intensity (a.u.)
TTGAAATCCCACACATGCCAGTCATCTAGCTAAGAGGCCACGGAGTCACCTAGTGCAG | 3960 fluorescence intensity (a.u.)
TTTTAGGAGTTAAGAGACGCGTCATATATATCTATCTGGACGGAGTCACCTAGTGCAG | 3720 fluorescence intensity (a.u.)
AGGTGCGTGCGTGCGTGCGACCGACCTGAAAATCCAAAGCCGGAGTCACCTAGTGCAG | 6790 fluorescence intensity (a.u.)
GGGTGTTTTGTTGACTATGAGTACTTTGACTGAAGAGGGTCGGAGTCACCTAGTGCAG | 3250 fluorescence intensity (a.u.)
